Test results reported in PubChem BioAssay AID2417 (National Center for Advancing Translational Sciences (NCATS), 2010).
Among all 140,000 compounds or so, about 4,300 (3.1%) were called active. The shares of active, inactive and inconclusive entries below differ from those in the screen.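 How the source made its calls: active means readout at or below -70, meaning at least 70% loss of cells showing the perinucleolar compartment, a nuclear body marking cancer cells; inconclusive means readout between -30 and a set limit; inactive means the rest.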

Assay: High Content Assay for Compounds that inhibit the Assembly of the Perinucleolar Compartment;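 further: plate controls were DMSO wells for no effect and camptothecin positive control wells for full effect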
Conditions: PC3M PTB-GFP, PNC prevalence imaging, 16 h; at 10 µM; hits give low values
Outline: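 PC3M cells stably expressing PTB-GFP, 750–1000 cells/well, treated 16 h at 37 °C with compound (23 nl of library stock), in duplicate. After paraformaldehyde fixation and Hoechst stain, imaged at 20x; PNC prevalence scored by image analysis.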

SMILES	activity change (PNC), negative = inhibition
CCn1c2ccccc2c2cc(NC(=O)COc3ccccc3OC)ccc21	inconclusive: -78.5%
O=C(Cc1ccc(Cl)cc1)Nc1nc2ccccc2[nH]1	inconclusive: -48.2%
CC1(C)CC2(CCO1)OC(=O)CC2C(=O)NCc1ccccc1 (stereo not drawn)	inconclusive: -51.2%
Cc1ccc(S(=O)(=O)Nc2ccc3c(c2)ncn3C(C)(C)C)cc1	inconclusive: -30.6%
O=c1c2ccccc2sn1-c1cc(S(=O)(=O)N2CCOCC2)ccc1N1CCOCC1	inconclusive: -75.4%
CCCCC1(C)OC(=O)C(=Cc2ccc(N(C)C)cc2)C(=O)O1 (stereo not drawn)	inactive: 82.3%
COc1ccc(/C=C/C(=O)NC(=S)Nc2ccc(C(=O)O)cc2)cc1	inconclusive: -49.2%
COc1ccc(S(=O)(=O)N2CCC(C(=O)NCCC3=CCCCC3)CC2)cc1OC	inconclusive: -60.4%
COc1ccc2c(c1)C(=O)[C@@H](O)[C@H](c1ccc(OC)c(Br)c1)O2	active: -115%
Cc1coc(C)c1C(=O)CC1(O)C(=O)N(Cc2ccccc2)c2ccccc21 (stereo not drawn)	inconclusive: -34%
Cc1nnc(NC(=O)CSc2nnc(Cc3cccn3C)n2C)s1	active: -94.6%
Cc1ccccc1N(C(=O)Cc1cccs1)C(C(=O)NC1CCCCC1)c1cn(C)nc1C (stereo not drawn)	inconclusive: -37.8%
O=C(NCc1ccco1)c1csc(Nc2ccccc2Cl)n1	active: -117%
CCOC(=O)c1sc(NC(=O)CSc2nc(C)cc(C(F)(F)F)n2)c(C#N)c1C	inconclusive: -44.1%
O=C(/C=C/c1ccccc1)c1ccccc1	inactive: 20.3%
Cc1csc(NC(=O)NC2(C(F)(F)F)Oc3ccccc3O2)n1	inconclusive: -35.7%
COc1ccc(CNc2nc(SCc3cc(=O)n4cc(Cl)ccc4n3)nc3ccccc23)cc1	inconclusive: -37.2%
c1ccc(-c2nnc(CN3CCCc4ccccc43)o2)cc1	inactive: -2.13%
CCn1c(SCC(=O)N=Nc2c(O)[nH]c3ccccc23)nnc1-c1ccc(C(C)(C)C)cc1	inconclusive: -31.2%
CCCN(c1ccc(OCC)cc1)c1ncnc2nc[nH]c12	inactive: 28.3%
COC(=O)c1sc2nc3c(cc2c1N)COC(C)(C)C3	inconclusive: -39.2%
Cc1cc(C)nc(SCC(=O)Nc2ccc(N3CCOCC3)cc2)n1	inconclusive: -66.5%
CNc1ccccc1C(C)(C)c1cc(-c2cc(C)cc(C)c2)no1	inconclusive: -33.9%
O=c1cc(CN2CCN(c3ccc(F)cc3)CC2)nc2sccn12	inconclusive: -36.2%

6 compounds picked at random from the list so far, as already listed:
SMILES	activity change (PNC), negative = inhibition
CCn1c(SCC(=O)N=Nc2c(O)[nH]c3ccccc23)nnc1-c1ccc(C(C)(C)C)cc1	inconclusive: -31.2%
c1ccc(-c2nnc(CN3CCCc4ccccc43)o2)cc1	inactive: -2.13%
COc1ccc(/C=C/C(=O)NC(=S)Nc2ccc(C(=O)O)cc2)cc1	inconclusive: -49.2%
O=C(Cc1ccc(Cl)cc1)Nc1nc2ccccc2[nH]1	inconclusive: -48.2%
CC1(C)CC2(CCO1)OC(=O)CC2C(=O)NCc1ccccc1 (stereo not drawn)	inconclusive: -51.2%
COc1ccc(S(=O)(=O)N2CCC(C(=O)NCCC3=CCCCC3)CC2)cc1OC	inconclusive: -60.4%

The results go on.

SMILES	activity change (PNC), negative = inhibition
S=c1[nH]nc(COc2ccccc2)n1C1CCCCC1	inactive: -6.39%
Cn1c(=O)oc2cc(S(=O)(=O)N3CCCC(C(=O)NC4CCCc5ccccc54)C3)ccc21 (stereo not drawn)	inactive: -1.46%
COc1ccc(S(=O)(=O)CCC(=O)NCCc2ccc(Cl)cc2)cc1	inconclusive: -48.1%
Cc1c(Cl)cnc(NC(=O)COC(=O)c2ccc([N+](=O)[O-])s2)c1Cl	inconclusive: -66.4%
O=C1C=C(Nc2ccc(Cl)cc2)CC(c2ccco2)C1 (stereo not drawn)	inconclusive: -59.6%
Cc1ccc(C)c(NC(=S)NNC(=O)c2csc(C)c2)c1	inconclusive: -37%
CC1CCc2c(sc3ncnc(NCCCOC(C)C)c23)C1 (stereo not drawn)	inconclusive: -43.3%
Cn1nc(C(C)(C)C)c([N+](=O)[O-])c1C(=O)Nc1ccccc1	inconclusive: -74.2%
Cc1cc(C(=O)NCc2cccs2)c(C)o1	inactive: 14.6%
O=C(COc1ccc2c(c1)OCO2)NC12CC3CC(CC(C3)C1)C2	inconclusive: -40.1%
Cc1ccc(C(=O)NC(NCC2CCCO2)C(Cl)(Cl)Cl)cc1 (stereo not drawn)	inconclusive: -34.4%
CC1(C)Cc2cccc(OCC(=O)N3CCN(c4ccccc4)CC3)c2O1	inconclusive: -57.7%
CS(=O)(=O)Nc1nnc(Cc2ccccc2)s1	active: -100%
Cc1cccc(-n2c(SCC(=O)Nc3ncc(Cl)cc3Cl)nc3ccccc32)c1	active: -108%
COc1nc(C#N)nc(N(C)C)n1	inactive: 23.2%
O=C(Nc1nnc(C2CC2)o1)c1ccc(S(=O)(=O)N2CCCc3ccccc32)cc1	inactive: 42.9%
COC(=O)c1ccc(N2CCCCC2)c(NS(=O)(=O)c2ccc(C)cc2)c1	inactive: -29.1%
CCCCCOc1ccc(Br)cc1/C(C)=N/NC1=NCCN1	active: -88.5%
O=C(NC(NC(=S)Nc1ccccc1)C(Cl)(Cl)Cl)c1cccc(Cl)c1 (stereo not drawn)	inactive: 8.35%
Nc1nc(CN2CCC(Cc3ccccc3)CC2)nc(Nc2ccccc2)n1	active: -105%
Nc1nnc(SCC(=O)N2CCc3ccccc32)n1-c1ccccc1	inconclusive: -59.7%
O=C(COc1cccc2cccnc12)N1CCc2ccccc2C1	inconclusive: -34.9%
CC(C(=O)Nc1ccccc1C(=O)N1CCCC1)n1nnc2ccccc21 (stereo not drawn)	inconclusive: -46%
O=C(O)CCCC(=O)NCCCCc1ccccc1	inconclusive: -31.2%

SMILES	activity change (PNC), negative = inhibition
Cc1ccc(/C(COc2ccccc2O)=N\O)cc1	inconclusive: -32.9%
O=S(Cc1ccc(Cl)cc1)CC(O)COc1ccc(Cl)cc1 (stereo not drawn)	inactive: 25.2%
Cc1ccc(/C=C2\SC(=S)N(Cc3ccccc3)C2=O)o1	inactive: -23%
Cc1ccccc1NC(=O)C(C#N)Cc1cccnc1 (stereo not drawn)	inconclusive: -40.4%
Cc1c(C=O)c2ccccc2n1CC(=O)N1CCc2ccccc2C1	inactive: -19.3%
Cc1ccc(-n2c3c(cc(C(=O)O)c2=O)C(=O)CC(C)(C)C3)cc1	inconclusive: -44.7%
COC(=O)c1c(NC(=O)c2ccco2)sc(C)c1C	active: -80.7%
O=C(CCN1C(=O)c2cccnc2C1=O)NC1CCCCCC1	inconclusive: -50.4%
CCc1cc2cc(C)ccc2nc1SCC(=O)Nc1cc(C)on1	inconclusive: -47.8%
COc1ccc(NC(=O)CSc2nc3ccccc3c(=O)n2CCC(=O)N2CCCCC2)cc1	inactive: 72.5%
CN(C)c1nc(SCC#N)nc(N2CCOCC2)n1	inconclusive: -43.8%
Cc1noc(COc2ccccc2OCC(N)=O)c1Cl	inconclusive: -55.3%
O=C(N/N=C/c1c(Cl)cccc1Cl)c1ccc(F)cc1	inactive: 3.22%
COc1ccc(-c2nc(CS(=O)CC(=O)NCCCN3CCCC3)c(C)o2)cc1OC (stereo not drawn)	inconclusive: -56%
COc1ccc(Nc2nnc(SCc3cc(=O)n4ccsc4n3)s2)cc1	inconclusive: -38.3%
O=Cc1ccc(N2CCCC2)c(F)c1	inconclusive: -58.4%
CCn1c(SCC(=O)Nc2nnc(C)s2)nnc1-c1ccncc1	inactive: -8.88%
Cc1nnc2n(C3CCCCC3)c(=O)c3c4c(sc3n12)CCC4	inconclusive: -55.1%
COc1ccc(-c2nc(C3CCCCC3)no2)cc1OC	inactive: -25.7%
COc1ccc2c(CC(=O)OCC(=O)Nc3cc(C)c(C)cc3[N+](=O)[O-])coc2c1	inconclusive: -59%
Cn1c(=O)cc(SCC(=O)N2CCCC2)c2ccccc21	active: -88.6%
Cc1sc(NC(=O)CCC(=O)O)c(C(N)=O)c1-c1ccccc1	inconclusive: -50.4%
O=C(COc1ccc(/C=N/NS(=O)(=O)c2ccccc2)cc1)NCc1ccccc1	inconclusive: -62.7%
CC1=C/C(=N\NC(=O)c2ccc(O)cc2)CC1	inactive: -16.8%

For reference, 2 of the compounds above:
SMILES	activity change (PNC), negative = inhibition
COc1ccc2c(c1)C(=O)[C@@H](O)[C@H](c1ccc(OC)c(Br)c1)O2	active: -115%
Cc1coc(C)c1C(=O)CC1(O)C(=O)N(Cc2ccccc2)c2ccccc21 (stereo not drawn)	inconclusive: -34%

The results go on.

SMILES	activity change (PNC), negative = inhibition
COc1ccc(CCNC(=O)CCCCCN2C(=O)c3ccccc3C2=O)cc1OC	inconclusive: -50.6%
O=C(/C(=C/c1ccc(Cl)cc1)c1nc2ccccc2[nH]1)c1ccccc1	inconclusive: -69.2%
CCCc1[nH]nc2c1C(c1ccccc1OCC)C(C#N)=C(N)O2 (stereo not drawn)	inconclusive: -36.4%
COc1ccc(CCNC(=O)CCNS(=O)(=O)c2cccc3nsnc23)cc1OC	inconclusive: -33.3%
CCOC(=O)c1c(-c2ccc(OC)cc2)nc2nonc2c1N	inconclusive: -39.2%
O=C(NCc1cccnc1)C(=O)NCC1OCCN1S(=O)(=O)c1ccc(Cl)cc1 (stereo not drawn)	active: -119%
OCCNc1nc2ccccc2n1-c1ncnc2sc3c(c12)CCC3	inconclusive: -50.4%
CN(C)S(=O)(=O)c1ccc(NC(=O)CN2CCN(C(c3ccccc3)c3ccccc3)CC2)cc1	inconclusive: -33.9%
COc1cc(/C=C(\C#N)C(=O)NCC2CCCO2)ccc1O (stereo not drawn)	inactive: 86%
O=C(CSc1n[nH]c(-c2cccs2)n1)NCc1cccs1	inactive: 29.7%
C/C(=N\NC(=O)c1csc(C)c1C)c1ccco1	inconclusive: -43.9%
CC1CCC(NC(=O)c2ccc3nc[nH]c3c2)CC1 (stereo not drawn)	inconclusive: -34.4%
O=C(c1ccccc1)N1CCN(S(=O)(=O)N2CCCCC2)CC1	inconclusive: -67.6%
CCCc1nn(C)c2c1C(c1cccnc1)C(C#N)=C(N)O2 (stereo not drawn)	inactive: -1.08%
O=C(COC(=O)/C(=C/c1cccs1)c1cccs1)NC(c1ccccc1)c1ccccc1	inactive: 12.1%
Cc1cc(Nc2cccc(C)c2C)n2nc(C)nc2n1	inactive: 57.2%
CCC/C(=N\NC(=O)c1cccc(C)c1)c1ccccc1	inactive: 66%
O=C(NC1CCCCC1)C1CN(S(=O)(=O)c2ccccc2)CCN1S(=O)(=O)c1ccccc1 (stereo not drawn)	inactive: -24.1%
COc1ccc(NC(=O)O/N=C2/CCCc3ccc(OC)cc32)cc1	inconclusive: -51.6%
COc1ccc(CCN2C(=O)CC(N3CCN(S(=O)(=O)c4ccccc4)CC3)C2=O)cc1 (stereo not drawn)	inconclusive: -49%
COc1ccc(C(=O)CSC2=C(C#N)C3(CCCCC3)C(C#N)=C(N)N2)cc1	inactive: 4.52%
